These are yes or no findings as the source states them, for the method shown. In cells and extracts the contact can be indirect. These calls come from enrichment with a bait or labelling near it, and not all partners need be listed.
Target: Flag-FAF1 wt (UniProt Q9UNN5)
Test: affinity purification with mass spectrometry; anti-Flag-FAF1 immunoprecipitants; cell line not stated

By UniProt entry, the sequences of proteins in these tests, tags left out.
UniProt Q9UNN5: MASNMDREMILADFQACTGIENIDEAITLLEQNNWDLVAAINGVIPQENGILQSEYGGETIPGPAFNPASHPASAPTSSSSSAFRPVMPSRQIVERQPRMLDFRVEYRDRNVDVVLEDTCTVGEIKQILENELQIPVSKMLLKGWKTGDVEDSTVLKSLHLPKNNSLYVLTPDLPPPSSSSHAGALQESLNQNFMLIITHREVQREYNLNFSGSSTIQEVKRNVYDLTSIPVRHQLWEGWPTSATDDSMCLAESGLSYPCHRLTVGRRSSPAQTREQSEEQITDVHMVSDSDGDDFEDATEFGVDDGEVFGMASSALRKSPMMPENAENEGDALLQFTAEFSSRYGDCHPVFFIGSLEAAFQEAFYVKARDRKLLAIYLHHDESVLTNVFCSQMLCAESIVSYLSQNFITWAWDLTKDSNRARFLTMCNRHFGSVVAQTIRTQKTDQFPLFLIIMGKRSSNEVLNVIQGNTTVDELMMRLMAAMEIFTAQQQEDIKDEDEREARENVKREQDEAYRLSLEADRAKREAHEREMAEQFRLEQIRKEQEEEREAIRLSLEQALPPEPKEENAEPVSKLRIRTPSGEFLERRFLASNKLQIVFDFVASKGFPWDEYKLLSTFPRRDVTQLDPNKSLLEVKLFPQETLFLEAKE

binding: binds
B1: SGT1A (protein, UniProt Q9Y2Z0-2 1-333)
chain: MAAAAAGTATSQRFFQSFSDALIDEDPQAALEELTKALEQKPDDAQYYCQRAYCHILLGNYCVAVADAKKSLELNPNNSTAMLRKGICEYHEKNYAAALETFTEGQKLDSADANFSVWIKRCQEAQNGSESEVWTHQSKIKYDWYQTESQVVITLMIKNVQKNDVNVEFSEKELSALVKLPSGEDYNLKLELLHPIIPEQSTFKVLSTKIEIKLKKPEAVRWEKLEGQGDVPTPKQFVADVKNLYPSSSPYTRNWDKLVGEIKEEEKNEKLEGDAALNRLFQQIYSDGSDEVKRAMNKSFMESGGTVLSTNWSDVGKRKVEINPPDDMEWKKY

Source: paper PMC5414047
